Measurements as given in PubChem BioAssay AID588589 (The Scripps Research Institute Molecular Screening Center, 2011).
Active and inactive are the calls of the source. How the calls were made is not given here.

Tested on: Fam108b (ABHD17B) [Mus musculus], recombinant soluble
Assay: mouse Fam108b hydrolase inhibitors, soluble construct – biochemical, gel-based ABPP, soluble form, SAR follow-up (AID 588589)
Details: fluorophosphonate probe, at 5 µM, hits give high values

inhibition: inactive: 5%
SMILES: Cc1ccc(-c2nc3c(cnn3-c3ccccc3)c(=O)o2)cc1
